Data: the supplement of paper PMC9233669
Variants at the background level are over-represented here.

Legend:
[1] = system: biotinyl-Trp-oxazolone; experiment: self-aminoacylation, catalytic enhancement (BWO) (fold over background); higher = more active; k-Seq, kA / k0A0; sequences stand for … in GGGAAUGGAUCCACAUCUACGAAUUC…UUCACUGCAGACUUGACGAAGCUG
How it was run: (§1)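 The uncatalyzed rate is the low-activity peak of a bimodal Gaussian fit, and catalytic enhancement is median kA divided by it. The kA values came from pseudo-first-order fits, with 1000 bootstraps, of per-sequence fraction reacted measured by streptavidin capture, triplicate qPCR and Illumina sequencing. Mutagenized RNA pools with a 21-nt variable region (0.43 μM) were reacted with each biotinyl-aminoacyl-oxazolone at 2–1250 μM in 50 μL HEPES/NaCl/KCl/MgCl2/CaCl2 buffer with 5% acetonitrile, pH 6.9–7.0, for 90 minutes at room temperature.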

[2] = system: biotinyl-Leu-oxazolone; experiment: self-aminoacylation, catalytic enhancement (BLO) (fold over background); higher = more active; k-Seq, kA / k0A0; sequences stand for … in GGGAAUGGAUCCACAUCUACGAAUUC…UUCACUGCAGACUUGACGAAGCUG
How it was run: as §1

[3] = system: biotinyl-Val-oxazolone; experiment: self-aminoacylation, catalytic enhancement (BVO) (fold over background); higher = more active; k-Seq, kA / k0A0; sequences stand for … in GGGAAUGGAUCCACAUCUACGAAUUC…UUCACUGCAGACUUGACGAAGCUG
How it was run: as §1

[4] = system: biotinyl-Ile-oxazolone; experiment: self-aminoacylation, catalytic enhancement (BIO) (fold over background); higher = more active; k-Seq, kA / k0A0; sequences stand for … in GGGAAUGGAUCCACAUCUACGAAUUC…UUCACUGCAGACUUGACGAAGCUG
How it was run: as §1

[5] = system: biotinyl-Met-oxazolone; experiment: self-aminoacylation, catalytic enhancement (BMO) (fold over background); higher = more active; k-Seq, kA / k0A0; sequences stand for … in GGGAAUGGAUCCACAUCUACGAAUUC…UUCACUGCAGACUUGACGAAGCUG
How it was run: as §1

ACGUUUGCUAAUGGUCGCAAG [Fam3.1 aminoacylation ribozyme variant]
self-aminoacylation [1]: 1.47
self-aminoacylation [2]: 1.25
self-aminoacylation [3]: 1.22
self-aminoacylation [4]: 1.22
self-aminoacylation [5]: 1.72

AUUACCCUCGUCAUCGAGUGA [Fam2.1 aminoacylation ribozyme variant]
self-aminoacylation [1]: 3.22
self-aminoacylation [2]: 3.09
self-aminoacylation [3]: 2.07
self-aminoacylation [4]: 2.08
self-aminoacylation [5]: 2.98

AUUACCCUGGCCAUCGACUGA [Fam2.1 aminoacylation ribozyme variant]
self-aminoacylation [1]: 0.215
self-aminoacylation [2]: 1.05
self-aminoacylation [3]: 0.861
self-aminoacylation [4]: 0.711
self-aminoacylation [5]: 0.936

AUUACCCUGGUCAUGGAGGGA [Fam2.1 aminoacylation ribozyme variant]
self-aminoacylation [1]: 2.23
self-aminoacylation [2]: 1.86
self-aminoacylation [3]: 1.76
self-aminoacylation [4]: 1.82
self-aminoacylation [5]: 1.83

AUUACCCUGGUGAUCGACUGA [Fam2.1 aminoacylation ribozyme variant]
self-aminoacylation [1]: 0.743
self-aminoacylation [2]: 1.12
self-aminoacylation [3]: 1.02
self-aminoacylation [4]: 1.05
self-aminoacylation [5]: 0.951

AUUACCCUGUUCAUGGAGUGA [Fam2.1 aminoacylation ribozyme variant]
self-aminoacylation [1]: 11.8
self-aminoacylation [2]: 11.4
self-aminoacylation [3]: 5.28
self-aminoacylation [4]: 5.12
self-aminoacylation [5]: 11.1

AUUACCGUGGUCAUCGGGUGA [Fam2.1 aminoacylation ribozyme variant]
self-aminoacylation [1]: 17.3
self-aminoacylation [2]: 11.9
self-aminoacylation [3]: 8.1
self-aminoacylation [4]: 7.08
self-aminoacylation [5]: 11.7

AUUACCUUGGUCAUCGCGUGA [Fam2.1 aminoacylation ribozyme variant]
self-aminoacylation [1]: 19.5
self-aminoacylation [2]: 19.2
self-aminoacylation [3]: 9.23
self-aminoacylation [4]: 7.37
self-aminoacylation [5]: 17.3

AUUAGCCUGAUCAUCGAGUGA [Fam2.1 aminoacylation ribozyme variant]
self-aminoacylation [1]: 11
self-aminoacylation [2]: 10.6
self-aminoacylation [3]: 4.4
self-aminoacylation [4]: 4.82
self-aminoacylation [5]: 10.4

AUUCACCAAGGGCAUCGGGUG [Fam2.2 aminoacylation ribozyme variant]
self-aminoacylation [1]: 4.74
self-aminoacylation [2]: 6.01
self-aminoacylation [3]: 5.01
self-aminoacylation [4]: 4.37
self-aminoacylation [5]: 5.2

AUUCACCGAGGUCAUCGUGUG [Fam2.2 aminoacylation ribozyme variant]
self-aminoacylation [1]: 1.04
self-aminoacylation [2]: 1.15
self-aminoacylation [3]: 0.939
self-aminoacylation [4]: 0.992
self-aminoacylation [5]: 1.21

AUUCACCUACUUCAUCGGGUG [Fam2.2 aminoacylation ribozyme variant]
self-aminoacylation [1]: 0.81
self-aminoacylation [2]: 0.992
self-aminoacylation [3]: 1.06
self-aminoacylation [4]: 0.925
self-aminoacylation [5]: 1.06

AUUCACCUAGGUCAGCGGGUG [Fam2.2 aminoacylation ribozyme variant]
self-aminoacylation [1]: 4.21
self-aminoacylation [2]: 5.95
self-aminoacylation [3]: 3.2
self-aminoacylation [4]: 3.3
self-aminoacylation [5]: 4.39

AUUCACCUAGGUCAGCGGUUG [Fam2.2 aminoacylation ribozyme variant]
self-aminoacylation [1]: 1.51
self-aminoacylation [2]: 1.96
self-aminoacylation [3]: 1.68
self-aminoacylation [4]: 1.81

AUUCACCUAGGUCAUAAGGUG [Fam2.2 aminoacylation ribozyme variant]
self-aminoacylation [1]: 2.59
self-aminoacylation [2]: 3.48
self-aminoacylation [3]: 1.69
self-aminoacylation [4]: 1.98
self-aminoacylation [5]: 3.33

AUUCACCUAGGUGAUCGGGUC [Fam2.2 aminoacylation ribozyme variant]
self-aminoacylation [1]: 0.807
self-aminoacylation [2]: 0.971
self-aminoacylation [3]: 1.46
self-aminoacylation [4]: 1.29
self-aminoacylation [5]: 1.14

AUUCACCUAGUUCAUCGGGUU [Fam2.2 aminoacylation ribozyme variant]
self-aminoacylation [1]: 1.66
self-aminoacylation [2]: 1.28
self-aminoacylation [3]: 1.61
self-aminoacylation [4]: 1.38
self-aminoacylation [5]: 1.46

AUUCACCUGGGUCAUCGGGUC [Fam2.2 aminoacylation ribozyme variant]
self-aminoacylation [1]: 1.52
self-aminoacylation [2]: 1.45
self-aminoacylation [3]: 1.89
self-aminoacylation [4]: 1.68
self-aminoacylation [5]: 1.91

AUUCACCUGGGUCAUCGUGUG [Fam2.2 aminoacylation ribozyme variant]
self-aminoacylation [1]: 1
self-aminoacylation [2]: 1.17
self-aminoacylation [3]: 1.26
self-aminoacylation [4]: 0.9
self-aminoacylation [5]: 1.03

AUUCACGUAGGUCAUCGGGUC [Fam2.2 aminoacylation ribozyme variant]
self-aminoacylation [1]: 1.18
self-aminoacylation [2]: 1.91
self-aminoacylation [3]: 2.28
self-aminoacylation [4]: 1.7
self-aminoacylation [5]: 2.19

AUUCACUGAGGUCAUCGGGUG [Fam2.2 aminoacylation ribozyme variant]
self-aminoacylation [1]: 5.64
self-aminoacylation [2]: 9.09
self-aminoacylation [3]: 4.37
self-aminoacylation [4]: 4.51
self-aminoacylation [5]: 7.22

AUUCAGCUAGAUCAUCGGGUG [Fam2.2 aminoacylation ribozyme variant]
self-aminoacylation [1]: 3.9
self-aminoacylation [2]: 4.61
self-aminoacylation [3]: 2.85
self-aminoacylation [4]: 2.71
self-aminoacylation [5]: 4.04

AUUCAGCUAGGUCAUCGUGUG [Fam2.2 aminoacylation ribozyme variant]
self-aminoacylation [1]: 0.917
self-aminoacylation [2]: 1
self-aminoacylation [3]: 0.842
self-aminoacylation [4]: 0.644
self-aminoacylation [5]: 0.779

AUUCGACUAGGUCAUCGGGUG [Fam2.2 aminoacylation ribozyme variant]
self-aminoacylation [1]: 6.57
self-aminoacylation [2]: 8.63
self-aminoacylation [3]: 3.95
self-aminoacylation [4]: 4.46
self-aminoacylation [5]: 7.05

AUUCUCCUAGGUCAUAGGGUG [Fam2.2 aminoacylation ribozyme variant]
self-aminoacylation [1]: 1.93
self-aminoacylation [3]: 1.72
self-aminoacylation [4]: 1.84

CCACACUUCAAGCAGUCGCUC [Fam1B.1 aminoacylation ribozyme variant]
self-aminoacylation [1]: 1.73
self-aminoacylation [3]: 1.51
self-aminoacylation [4]: 1.78
self-aminoacylation [5]: 1.47

CCACAGUUCAAGCAAUCGCUC [Fam1B.1 aminoacylation ribozyme variant]
self-aminoacylation [1]: 1.96
self-aminoacylation [3]: 1.76
self-aminoacylation [4]: 1.98
self-aminoacylation [5]: 1.65

UAGUUUGUUAAUAGUCGCAAG [Fam3.1 aminoacylation ribozyme variant]
self-aminoacylation [1]: 1.96
self-aminoacylation [3]: 1.83
self-aminoacylation [4]: 1.88
self-aminoacylation [5]: 1.63

UUUCACCUAGGUCAUCGGGUC [Fam2.2 aminoacylation ribozyme variant]
self-aminoacylation [1]: 1.86
self-aminoacylation [2]: 1.72
self-aminoacylation [4]: 1.58
self-aminoacylation [5]: 1.46
